Source: paper PMC8327350, “Interaction between the transmembrane domains of neurotrophin receptors p75 and TrkA mediates their reciprocal activation” (The Journal of Biological Chemistry, 2021)
No constants are given. Whether binding was seen depends on the method and setting. Some binding calls cover weakened binding; strength is not graded here.

T1: p75-TM-C257A (C257A point mutant form of p75TM) (human)
T1 sequence (chain, 15N-labeled in one set of titrations, unlabeled in the other): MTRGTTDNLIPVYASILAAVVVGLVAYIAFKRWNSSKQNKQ


Experiments:
human TrkA-TM (human) = experiment: NMR titration; unlabeled p75-TM-C257A added incrementally to 0.5 mM 15N-labeled TrkA-TM; DPC micelles, LPR 80, pH 5.9, 318 K, 20 mM sodium phosphate; both purified
[1] = biological target: T1, p75-TM-C257A (C257A point mutant form of p75TM) (human); experiment: NMR titration; unlabeled TrkA-TM added incrementally to 0.4 mM 15N-labeled p75-C257A-TM; DPC micelles, LPR 80, pH 5.9, 318 K, 20 mM sodium phosphate; both purified

binding (human TrkA-TM (human)) | binding [1] | Binder
binds weakly | – | MTRGTTDNLIPVYASILAAVVVGLVAYIAFKRWNSSKQNKQ (domain or fragment, 15N-labeled in one set of titrations, unlabeled in the other) [p75-TM-C257A (C257A point mutant form of p75TM)]
– | binds weakly | MKKDETPFGVSVAVGLAVFACLFLSTLLLVLNKAGRRNK (domain or fragment, 15N-labeled in one set of titrations, unlabeled in the other) [human TrkA-TM]
